Results reported in patent publication US20100029697A1, “SUBSTITUTED PYRIDO[3,2-E][1,2,4]TRIAZOLO[4,3-C]PYRIMIDINE DERIVATIVES AS CANNABINOID-1 RECEPTOR MODULATORS” (priority 2007, published 2010).
Some results were stated once for a whole list of compounds, not compound by compound.

By UniProt entry, the sequences of proteins in these tests, tags left out.
UniProt P21554, whole entry: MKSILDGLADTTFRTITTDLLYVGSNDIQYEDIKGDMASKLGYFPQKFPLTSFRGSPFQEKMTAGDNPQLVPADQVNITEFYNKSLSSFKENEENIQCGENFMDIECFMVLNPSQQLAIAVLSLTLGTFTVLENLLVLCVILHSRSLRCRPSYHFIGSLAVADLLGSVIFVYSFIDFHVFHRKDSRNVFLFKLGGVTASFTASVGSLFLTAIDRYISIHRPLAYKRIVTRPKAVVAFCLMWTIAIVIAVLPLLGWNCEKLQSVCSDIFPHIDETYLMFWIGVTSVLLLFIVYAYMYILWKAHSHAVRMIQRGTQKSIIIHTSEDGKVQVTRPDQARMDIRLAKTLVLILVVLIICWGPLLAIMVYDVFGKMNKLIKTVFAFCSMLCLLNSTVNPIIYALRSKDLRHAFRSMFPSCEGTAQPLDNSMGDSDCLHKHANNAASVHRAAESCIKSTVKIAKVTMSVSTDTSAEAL

Target: recombinant human CB1 receptor (Homo sapiens, UniProt P21554)
Test: Cannabinoid Receptor-1 (CB1) Binding Assay ([3H]CP-55940 displacement)
Conditions: upper bound stated in text
Protocol: Binding affinity determination is based on recombinant human CB1 receptor expressed in Chinese Hamster Ovary (CHO) cells (Felder et al, Mol. Pharmacol. 48: 443-450, 1995). Total assay volume is 250 μl (240 μl CB1 receptor membrane solution plus 5 μl test compound solution plus 5 μl [3H]CP-55940 solution). Final concentration of [3H]CP-55940 is 0.6 nM. Binding buffer contains 50 mM Tris-HCl, pH7.4, 2.5 mM EDTA, 5 mM MgCl2, 0.5 mg/mL fatty acid free bovine serum albumin and protease inhibitors (Cat#P8340, from Sigma). To initiate the binding reaction, 5 μl of radioligand solution is added, the mixture is incubated with gentle shaking on a shaker for 1.5 h at 30° C. The binding is terminated by using 96-well harvester and filtering through GF/C filter presoaked in 0.05% polyethylenimine. The bound radiolabel is quantitated using scintillation counter. Apparent binding affinities for various compounds are calculated from IC50 values (DeBlasi et al., Trends Pharmacol Sci 10: 227-229, 1989).

SMILES | IC50
CC(C)c1nc2nc(-c3ccc(Br)cc3Cl)c(-c3ccc(Cl)cc3)cc2c2n[nH]c(=O)n12 [Example 33, 8-(4-Bromo-2-chlorophenyl)-9-(4-chlorophenyl)-5-isopropylpyrido[3,2-e][1,2,4]triazolo[4,3-c]pyrimidin-3(2H)-one] | < 1200 nM
CC(=O)c1ccc(-c2nc3nc(C(C)(C)C)n4c(=O)[nH]nc4c3cc2-c2ccc(Cl)cc2)c(Cl)c1 [Example 34, 8-(4-Acetyl-2-chlorophenyl)-5-tert-butyl-9-(4-chlorophenyl)pyrido[3,2-e][1,2,4]triazolo[4,3-c]pyrimidin-3(2H)-one] | < 1200 nM
